Not every detail of the peptide structures is certain; ends, links or a residue may be inferred. No end group written: not given here.
Tested on: prothrombinase
Assay: prothrombinase assay with purified proteins
Type: biochemical
Protocol: FIG. 3 illustrates prothrombinase activity in the presence of PC311-325. The assay was performed using 1 nM factor Xa, 0.4 nM factor Va, 1.2 μM prothrombin and […] factor Xa in the absence of factor Va in TBS-BSA, 2.5 mM CaCl2, pH 7.4. Unless otherwise specified all prothrombinase assays were carried out in the presence of 50 μM phospholipid vesicles. In all cases solid symbols indicate prothrombinase activity in the presence of factor Va whereas open symbols indicate prothrombinase activity in the […] of factor Va. Solid circles with solid lines indicate prothrombinase activity (with factor Va) in the presence of PC311-325, solid squares with solid lines indicate prothrombinase activity (with factor Va) in the presence of PC311-325 but in the absence of phospholipid vesicles and solid triangles with dashed lines indicate prothrombinase activity (with factor Va) in the presence of the control peptide. Open circles with solid lines denote prothrombinase activity (without factor Va) in the presence of PC311-325 and open triangles with dashed lines denote prothrombinase activity (without factor Va) in the presence of the control peptide. […]
Factor Va was determined via its cofactor activity in the activation of prothrombin by Factor Xa. […] The molar concentration of Factor Xa was determined by active site titration as described by Chase et al., Biochem. Biophys. […]

Substance: YGVYTKVSRYLDWIH-NH2 [PC390-404, YGVYTKVSRYLDWIH]
- anticoagulant properties due to inhibition of prothrombinase activity: lacks

Source: patent US5968751A, “Method for detecting the presence of protein C antibody in a fluid sample” (The Scripps Research Institute, priority 1997, dated 1999)
